# Test results from the supplement of paper PMC11438910.
# This is one part of the list. Most of these values are background signal.
# Experiments:
# Assay in all cases: fluorescence intensity of antibody binding to polysaccharide-coupled beads; higher = stronger binding
# [1] = molecular target: pneumococcal polysaccharide C-Poly-1
# [2] = molecular target: pneumococcal polysaccharide C-Poly-2
# [3] = molecular target: pneumococcal polysaccharide Pn1
# [4] = molecular target: pneumococcal polysaccharide Pn10A
# [5] = molecular target: pneumococcal polysaccharide Pn10B
# [6] = molecular target: pneumococcal polysaccharide Pn10C
# [7] = molecular target: pneumococcal polysaccharide Pn10F
# [8] = molecular target: pneumococcal polysaccharide Pn11A
# [9] = molecular target: pneumococcal polysaccharide Pn11B
# [10] = molecular target: pneumococcal polysaccharide Pn11C
# [11] = molecular target: pneumococcal polysaccharide Pn11D
# [12] = molecular target: pneumococcal polysaccharide Pn11F
# [13] = molecular target: pneumococcal polysaccharide Pn12A
# [14] = molecular target: pneumococcal polysaccharide Pn12B
# [15] = molecular target: pneumococcal polysaccharide Pn12F
# [16] = molecular target: pneumococcal polysaccharide Pn8
# [17] = molecular target: pneumococcal polysaccharide Pn9A
# [18] = molecular target: pneumococcal polysaccharide Pn9L
# [19] = molecular target: pneumococcal polysaccharide Pn9N
# [20] = molecular target: pneumococcal polysaccharide Pn9V
# [21] = antibody concentration 0.1 ng/mL
# [22] = antibody concentration 0.534724 ng/mL
# [23] = antibody concentration 2.8593 ng/mL
# [24] = antibody concentration 15.2894 ng/mL
# [25] = antibody concentration 81.7561 ng/mL
# [26] = antibody concentration 437.17 ng/mL
# [27] = antibody concentration 2337.65 ng/mL
# [28] = antibody concentration 12500 ng/mL
binder,measurement,setting,value
4-173.5 (protein) chain 1: QLQLQESGPGLVKPSETLSLTCAVSGDSISSNYWSWIRQPPGKGLEWIGRISDGGGSTDYNPSLKSRVTISTDTSKNQFSLKLNSVTAADTAVYFCARGSYRVDYWGQGVLVTVSS chain 2: QAALTQPPSMSGSPGQSVTISCTGASSDIGGYNRVSWYQQHPANAPKLMIYDVSKRPSGVSDRFSGSKSGNTASLTISGLQADDEADYYCSSYAHINTALFGGGTRLTVL,fluorescence intensity,[1]; [21],26.5 MFI
same,fluorescence intensity,[1]; [22],26 MFI
same,fluorescence intensity,[1]; [23],26.5 MFI
same,fluorescence intensity,[1]; [24],29.2 MFI
same,fluorescence intensity,[1]; [25],39 MFI
same,fluorescence intensity,[1]; [26],108 MFI
same,fluorescence intensity,[1]; [27],385 MFI
same,fluorescence intensity,[1]; [28],840 MFI
same,fluorescence intensity,[2]; [21],20.5 MFI
same,fluorescence intensity,[2]; [22],20.5 MFI
same,fluorescence intensity,[2]; [23],22.5 MFI
same,fluorescence intensity,[2]; [24],30 MFI
same,fluorescence intensity,[2]; [25],89.5 MFI
same,fluorescence intensity,[2]; [26],398 MFI
same,fluorescence intensity,[2]; [27],1530 MFI
same,fluorescence intensity,[2]; [28],2770 MFI
same,fluorescence intensity,[3]; [21],13.5 MFI
same,fluorescence intensity,[3]; [22],14.5 MFI
same,fluorescence intensity,[3]; [23],15.5 MFI
same,fluorescence intensity,[3]; [24],24.5 MFI
same,fluorescence intensity,[3]; [25],74.5 MFI
same,fluorescence intensity,[3]; [26],322 MFI
same,fluorescence intensity,[3]; [27],931 MFI
same,fluorescence intensity,[3]; [28],1520 MFI
same,fluorescence intensity,[4]; [21],28 MFI
same,fluorescence intensity,[4]; [22],27.5 MFI
same,fluorescence intensity,[4]; [23],30.8 MFI
same,fluorescence intensity,[4]; [24],48.5 MFI
same,fluorescence intensity,[4]; [25],167 MFI
same,fluorescence intensity,[4]; [26],750 MFI
same,fluorescence intensity,[4]; [27],2210 MFI
same,fluorescence intensity,[4]; [28],3340 MFI
same,fluorescence intensity,[5]; [21],24.5 MFI
same,fluorescence intensity,[5]; [22],24 MFI
same,fluorescence intensity,[5]; [23],30.5 MFI
same,fluorescence intensity,[5]; [24],47.5 MFI
same,fluorescence intensity,[5]; [25],164 MFI
same,fluorescence intensity,[5]; [26],850 MFI
same,fluorescence intensity,[5]; [27],2670 MFI
same,fluorescence intensity,[5]; [28],3970 MFI
same,fluorescence intensity,[6]; [21],15.5 MFI
same,fluorescence intensity,[6]; [22],16.5 MFI
same,fluorescence intensity,[6]; [23],17.8 MFI
same,fluorescence intensity,[6]; [24],24.5 MFI
same,fluorescence intensity,[6]; [25],83 MFI
same,fluorescence intensity,[6]; [26],528 MFI
same,fluorescence intensity,[6]; [27],2480 MFI
same,fluorescence intensity,[6]; [28],3950 MFI
same,fluorescence intensity,[7]; [21],20 MFI
same,fluorescence intensity,[7]; [22],20 MFI
same,fluorescence intensity,[7]; [23],19 MFI
same,fluorescence intensity,[7]; [24],25 MFI
same,fluorescence intensity,[7]; [25],49.2 MFI
same,fluorescence intensity,[7]; [26],276 MFI
same,fluorescence intensity,[7]; [27],1690 MFI
same,fluorescence intensity,[7]; [28],2840 MFI
same,fluorescence intensity,[8]; [21],30 MFI
same,fluorescence intensity,[8]; [22],27.5 MFI
same,fluorescence intensity,[8]; [23],29.8 MFI
same,fluorescence intensity,[8]; [24],36 MFI
same,fluorescence intensity,[8]; [25],84.8 MFI
same,fluorescence intensity,[8]; [26],276 MFI
same,fluorescence intensity,[8]; [27],854 MFI
same,fluorescence intensity,[8]; [28],1320 MFI
same,fluorescence intensity,[9]; [21],27 MFI
same,fluorescence intensity,[9]; [22],27.2 MFI
same,fluorescence intensity,[9]; [23],26 MFI
same,fluorescence intensity,[9]; [24],42.5 MFI
same,fluorescence intensity,[9]; [25],138 MFI
same,fluorescence intensity,[9]; [26],803 MFI
same,fluorescence intensity,[9]; [27],2890 MFI
same,fluorescence intensity,[9]; [28],4050 MFI
same,fluorescence intensity,[10]; [21],22 MFI
same,fluorescence intensity,[10]; [22],22.2 MFI
same,fluorescence intensity,[10]; [23],23 MFI
same,fluorescence intensity,[10]; [24],25 MFI
same,fluorescence intensity,[10]; [25],53 MFI
same,fluorescence intensity,[10]; [26],230 MFI
same,fluorescence intensity,[10]; [27],1160 MFI
same,fluorescence intensity,[10]; [28],3030 MFI
same,fluorescence intensity,[11]; [21],24 MFI
same,fluorescence intensity,[11]; [22],23.5 MFI
same,fluorescence intensity,[11]; [23],25.5 MFI
same,fluorescence intensity,[11]; [24],38 MFI
same,fluorescence intensity,[11]; [25],177 MFI
same,fluorescence intensity,[11]; [26],899 MFI
same,fluorescence intensity,[11]; [27],3240 MFI
same,fluorescence intensity,[11]; [28],5510 MFI
same,fluorescence intensity,[12]; [21],13.8 MFI
same,fluorescence intensity,[12]; [22],14.2 MFI
same,fluorescence intensity,[12]; [23],15 MFI
same,fluorescence intensity,[12]; [24],18.5 MFI
same,fluorescence intensity,[12]; [25],50.5 MFI
same,fluorescence intensity,[12]; [26],250 MFI
same,fluorescence intensity,[12]; [27],1650 MFI
same,fluorescence intensity,[12]; [28],2900 MFI
same,fluorescence intensity,[13]; [21],15 MFI
same,fluorescence intensity,[13]; [22],15 MFI
same,fluorescence intensity,[13]; [23],16.8 MFI
same,fluorescence intensity,[13]; [24],21.5 MFI
same,fluorescence intensity,[13]; [25],73.8 MFI
same,fluorescence intensity,[13]; [26],471 MFI
same,fluorescence intensity,[13]; [27],2420 MFI
same,fluorescence intensity,[13]; [28],5350 MFI
same,fluorescence intensity,[14]; [21],16 MFI
same,fluorescence intensity,[14]; [22],15 MFI
same,fluorescence intensity,[14]; [23],15 MFI
same,fluorescence intensity,[14]; [24],18 MFI
same,fluorescence intensity,[14]; [25],36.8 MFI
same,fluorescence intensity,[14]; [26],205 MFI
same,fluorescence intensity,[14]; [27],1390 MFI
same,fluorescence intensity,[14]; [28],3980 MFI
same,fluorescence intensity,[15]; [21],20.5 MFI
same,fluorescence intensity,[15]; [22],19.5 MFI
same,fluorescence intensity,[15]; [23],22 MFI
same,fluorescence intensity,[15]; [24],42 MFI
same,fluorescence intensity,[15]; [25],165 MFI
same,fluorescence intensity,[15]; [26],840 MFI
same,fluorescence intensity,[15]; [27],2490 MFI
same,fluorescence intensity,[15]; [28],3990 MFI
4-80.4 (protein) chain 1: QVQLQESGPGLVKPSETLSLTCAVSGGSFSSYWWSWIRQSPGKGLEWIGEISGNSGSTNYNPSLKSRVTISKDASKNQFSLKLSSVTAADTAVYYCARYKEYWGQGVLVTVSS chain 2: DVVMTQSPLSLLITPGQPASISCRSSQSLVHSNGNTYLSWYQQKPGQPPRRLLYEVSNRDSGVPDRFSGSGAGTDFTLKISRVEAEDVGVYYCGQGTHLPYSFGQGTKVEIK,fluorescence intensity,[16]; [21],21 MFI
same,fluorescence intensity,[16]; [22],21.8 MFI
same,fluorescence intensity,[16]; [23],22 MFI
same,fluorescence intensity,[16]; [24],21.5 MFI
same,fluorescence intensity,[16]; [25],21.5 MFI
same,fluorescence intensity,[16]; [26],21 MFI
same,fluorescence intensity,[16]; [27],25 MFI
same,fluorescence intensity,[16]; [28],36.2 MFI
same,fluorescence intensity,[17]; [21],19.8 MFI
same,fluorescence intensity,[17]; [22],18.8 MFI
same,fluorescence intensity,[17]; [23],19 MFI
same,fluorescence intensity,[17]; [24],19.8 MFI
same,fluorescence intensity,[17]; [25],19 MFI
same,fluorescence intensity,[17]; [26],19.5 MFI
same,fluorescence intensity,[17]; [27],22 MFI
same,fluorescence intensity,[17]; [28],37.5 MFI
same,fluorescence intensity,[18]; [21],16.5 MFI
same,fluorescence intensity,[18]; [22],17.5 MFI
same,fluorescence intensity,[18]; [23],18.5 MFI
same,fluorescence intensity,[18]; [24],17 MFI
same,fluorescence intensity,[18]; [25],17 MFI
same,fluorescence intensity,[18]; [26],16.5 MFI
same,fluorescence intensity,[18]; [27],19.5 MFI
same,fluorescence intensity,[18]; [28],28.5 MFI
same,fluorescence intensity,[19]; [21],14.5 MFI
same,fluorescence intensity,[19]; [22],16 MFI
same,fluorescence intensity,[19]; [23],15.5 MFI
same,fluorescence intensity,[19]; [24],16.5 MFI
same,fluorescence intensity,[19]; [25],15.5 MFI
same,fluorescence intensity,[19]; [26],17 MFI
same,fluorescence intensity,[19]; [27],17.5 MFI
same,fluorescence intensity,[19]; [28],29.2 MFI
same,fluorescence intensity,[20]; [21],14 MFI
same,fluorescence intensity,[20]; [22],15.5 MFI
same,fluorescence intensity,[20]; [23],14 MFI
same,fluorescence intensity,[20]; [24],14.5 MFI
same,fluorescence intensity,[20]; [25],15 MFI
same,fluorescence intensity,[20]; [26],14.5 MFI
same,fluorescence intensity,[20]; [27],16 MFI
same,fluorescence intensity,[20]; [28],22 MFI

# Given bar-delimited: entries from further up.
binder | measurement | setting | value
4-173.5 (protein) chain 1: QLQLQESGPGLVKPSETLSLTCAVSGDSISSNYWSWIRQPPGKGLEWIGRISDGGGSTDYNPSLKSRVTISTDTSKNQFSLKLNSVTAADTAVYFCARGSYRVDYWGQGVLVTVSS chain 2: QAALTQPPSMSGSPGQSVTISCTGASSDIGGYNRVSWYQQHPANAPKLMIYDVSKRPSGVSDRFSGSKSGNTASLTISGLQADDEADYYCSSYAHINTALFGGGTRLTVL | fluorescence intensity | [2]; [28] | 2770 MFI
same | fluorescence intensity | [3]; [21] | 13.5 MFI
